Measured values reported in PMC11425283.

By UniProt entry, the sequences of proteins in these tests, tags left out. Where a name states a change or a piece, a line headed by the entry shows the natural chain unless it says otherwise.
UniProt P09958: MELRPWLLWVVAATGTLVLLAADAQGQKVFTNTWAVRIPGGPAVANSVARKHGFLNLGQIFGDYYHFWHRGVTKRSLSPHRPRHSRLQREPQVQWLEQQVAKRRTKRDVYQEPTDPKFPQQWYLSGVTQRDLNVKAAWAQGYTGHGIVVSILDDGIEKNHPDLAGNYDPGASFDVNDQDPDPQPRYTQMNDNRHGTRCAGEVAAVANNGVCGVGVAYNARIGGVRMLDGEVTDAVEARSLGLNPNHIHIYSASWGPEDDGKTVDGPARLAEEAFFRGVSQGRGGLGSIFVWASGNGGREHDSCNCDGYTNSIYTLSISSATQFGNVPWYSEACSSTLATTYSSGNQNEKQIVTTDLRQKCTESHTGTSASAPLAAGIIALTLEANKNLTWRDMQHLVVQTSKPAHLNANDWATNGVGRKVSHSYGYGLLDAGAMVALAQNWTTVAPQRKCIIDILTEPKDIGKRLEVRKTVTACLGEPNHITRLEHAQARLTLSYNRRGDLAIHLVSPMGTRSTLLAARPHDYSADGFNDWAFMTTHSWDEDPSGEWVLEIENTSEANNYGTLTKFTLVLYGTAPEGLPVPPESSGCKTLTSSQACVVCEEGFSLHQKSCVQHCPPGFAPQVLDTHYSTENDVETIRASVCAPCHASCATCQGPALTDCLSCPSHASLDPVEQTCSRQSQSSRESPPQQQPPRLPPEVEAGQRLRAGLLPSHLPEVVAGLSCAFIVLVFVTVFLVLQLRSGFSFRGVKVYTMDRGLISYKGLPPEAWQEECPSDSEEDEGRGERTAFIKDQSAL

Assays:
[1] = target: USP32 with a 3×HA-tag (wild type) (human) (UniProt Q8NFA0); assay: co-IP; HA-tagged MARCHF or USP32 (WT or mutant) co-expressed with furin (WT or mutant) in HEK293T; RIPA lysate; IP with anti-HA affinity gel overnight at 4 °C; WB
[2] = target: T1, USP32 Mut-4 (∆585–1604), 3×HA (human) (UniProt Q8NFA0); assay: as above
T1 sequence: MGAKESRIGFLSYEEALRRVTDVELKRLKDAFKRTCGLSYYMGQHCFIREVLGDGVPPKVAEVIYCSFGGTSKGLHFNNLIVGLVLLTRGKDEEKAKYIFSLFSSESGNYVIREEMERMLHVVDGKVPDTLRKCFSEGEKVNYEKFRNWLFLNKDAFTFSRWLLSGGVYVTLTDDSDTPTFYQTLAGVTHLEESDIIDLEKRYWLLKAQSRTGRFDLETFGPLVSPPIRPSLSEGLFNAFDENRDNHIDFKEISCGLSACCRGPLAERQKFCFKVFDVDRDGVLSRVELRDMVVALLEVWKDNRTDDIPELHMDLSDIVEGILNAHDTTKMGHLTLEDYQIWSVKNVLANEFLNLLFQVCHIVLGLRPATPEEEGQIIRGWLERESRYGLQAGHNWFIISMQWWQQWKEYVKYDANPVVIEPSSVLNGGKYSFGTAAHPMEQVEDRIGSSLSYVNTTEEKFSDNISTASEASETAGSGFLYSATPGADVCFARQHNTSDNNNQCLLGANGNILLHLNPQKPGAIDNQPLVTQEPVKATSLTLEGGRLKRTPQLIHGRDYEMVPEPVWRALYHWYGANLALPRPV

[3] = target: USP32 Mut-2 (∆369–589), 3×HA (human) (UniProt Q8NFA0); assay: as above
[4] = target: T2, USP32 Mut-5 (∆734–1567), 3×HA (human) (UniProt Q8NFA0); assay: as above
T2 sequence: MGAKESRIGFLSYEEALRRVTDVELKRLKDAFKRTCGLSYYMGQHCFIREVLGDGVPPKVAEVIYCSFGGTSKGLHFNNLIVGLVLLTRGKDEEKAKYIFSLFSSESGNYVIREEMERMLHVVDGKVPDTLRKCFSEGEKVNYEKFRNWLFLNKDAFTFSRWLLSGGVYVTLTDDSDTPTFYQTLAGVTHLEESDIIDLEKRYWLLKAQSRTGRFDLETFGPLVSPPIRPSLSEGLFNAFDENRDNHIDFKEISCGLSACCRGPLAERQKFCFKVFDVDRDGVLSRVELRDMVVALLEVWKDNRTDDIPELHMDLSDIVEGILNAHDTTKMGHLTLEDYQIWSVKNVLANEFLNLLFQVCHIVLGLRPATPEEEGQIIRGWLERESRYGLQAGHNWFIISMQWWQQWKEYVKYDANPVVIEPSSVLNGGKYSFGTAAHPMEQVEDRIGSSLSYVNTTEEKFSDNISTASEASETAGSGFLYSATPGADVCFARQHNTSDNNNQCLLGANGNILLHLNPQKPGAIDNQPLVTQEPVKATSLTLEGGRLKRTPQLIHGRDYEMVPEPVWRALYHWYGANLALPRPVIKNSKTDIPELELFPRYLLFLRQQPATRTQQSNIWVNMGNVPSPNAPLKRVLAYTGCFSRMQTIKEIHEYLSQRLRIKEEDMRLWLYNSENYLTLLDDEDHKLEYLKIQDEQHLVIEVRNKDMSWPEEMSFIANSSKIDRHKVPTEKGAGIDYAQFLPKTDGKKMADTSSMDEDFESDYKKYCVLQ

[5] = target: USP32 Mut-3 (∆1–585), 3×HA (human) (UniProt Q8NFA0); assay: as above
3×HA-MARCHF8(M7R) = target: T3, 3×HA-MARCHF8(M7R) (UniProt Q5T0T0); assay: as above
T3 sequence: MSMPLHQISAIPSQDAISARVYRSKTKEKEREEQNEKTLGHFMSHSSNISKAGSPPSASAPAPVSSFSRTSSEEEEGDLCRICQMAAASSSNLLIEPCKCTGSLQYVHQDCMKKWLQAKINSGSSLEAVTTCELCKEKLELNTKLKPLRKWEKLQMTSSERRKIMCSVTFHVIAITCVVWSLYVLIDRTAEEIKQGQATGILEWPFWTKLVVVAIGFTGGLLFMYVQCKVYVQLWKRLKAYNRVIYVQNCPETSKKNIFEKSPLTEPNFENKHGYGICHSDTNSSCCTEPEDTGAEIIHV

[6] = target: USP32 Mut-6 (∆1568–1604), 3×HA (human) (UniProt Q8NFA0); assay: as above
[7] = target: USP32 Mut-1 (∆1–299), 3×HA (human) (UniProt Q8NFA0); assay: as above
MARCHF2(M7R)-3×HA = target: T4, MARCHF2(M7R)-3×HA (UniProt Q9P0N8); assay: as above
T4 sequence: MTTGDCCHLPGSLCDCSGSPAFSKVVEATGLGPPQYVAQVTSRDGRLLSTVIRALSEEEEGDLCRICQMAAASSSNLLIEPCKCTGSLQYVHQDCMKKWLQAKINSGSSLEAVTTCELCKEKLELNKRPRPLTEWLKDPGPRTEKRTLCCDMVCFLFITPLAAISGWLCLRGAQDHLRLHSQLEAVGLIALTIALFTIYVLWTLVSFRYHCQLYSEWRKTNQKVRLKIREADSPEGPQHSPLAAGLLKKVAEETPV

MARCHF9(M7R)-3×HA = target: T5, MARCHF9(M7R)-3×HA (UniProt Q86YJ5); assay: as above
T5 sequence: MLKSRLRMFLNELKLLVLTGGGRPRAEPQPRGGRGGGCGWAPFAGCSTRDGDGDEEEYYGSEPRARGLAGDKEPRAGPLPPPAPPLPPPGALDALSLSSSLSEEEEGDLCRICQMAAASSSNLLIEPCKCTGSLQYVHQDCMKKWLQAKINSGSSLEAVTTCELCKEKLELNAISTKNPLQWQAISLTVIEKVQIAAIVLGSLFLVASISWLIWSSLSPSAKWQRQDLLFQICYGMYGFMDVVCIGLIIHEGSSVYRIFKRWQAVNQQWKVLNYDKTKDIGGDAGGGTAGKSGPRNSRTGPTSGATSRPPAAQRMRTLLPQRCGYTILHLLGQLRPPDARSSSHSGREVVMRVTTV

USP32-3×Myc (human) = USP32-3×Myc (human) (UniProt Q8NFA0); assay: co-IP; Myc-tagged USP32 co-expressed with FLAG-tagged furin in HEK293T; IP with anti-Myc; WB

**Q.** For “furin (FLAG-tagged, wild type) (from UniProt P09958) (enzyme)”, which binding [1] is on record?
**A.** binds

**Q.** What about the binding [2] of the same substance?
**A.** no binding

**Q.** What about the binding [3] of the same substance?
**A.** binds

**Q.** What about the binding [4] of the same substance?
**A.** no binding

**Q.** What about the binding [5] of the same substance?
**A.** binds

**Q.** And the binding (3×HA-MARCHF8(M7R))?
**A.** no binding

**Q.** And the binding [6]?
**A.** binds

**Q.** What about the binding [7] of the same substance?
**A.** binds

**Q.** And the binding (MARCHF2(M7R)-3×HA)?
**A.** no binding

**Q.** And the binding (MARCHF9(M7R)-3×HA)?
**A.** no binding

**Q.** What about the binding (USP32-3×Myc (human)) of the same substance?
**A.** binds

No constants are given. Whether binding was seen depends on the method and setting. Binding seen in cells or lysates may run through a third protein. For some assays here: A result given as binding can be weak or reduced; the word gives no strength. For some assays here: Where a sequence is shown, tags or fusion partners need not be part of it.
